# Experimental data published in PubChem BioAssay AID540303 (National Center for Advancing Translational Sciences (NCATS), 2011).
# Hit rate of the full screen: of about 330,000 compounds, about 1,000 (0.3%) were called active. This list was built around the results that the source calls inconclusive (neither active nor inactive); the mix of calls is not that of the screen. Calls come from the whole dose curve; as a rule, active = well fitted inhibition curve with a large enough effect; inconclusive = small, poorly fitted or top-dose-only effect; inactive = no such curve, though single readings can be large or run the other way; tested in mouse RAW 264.7 cells. Potencies of inconclusive entries are doubtful fits and often do not repeat.
# Assay: qHTS for Inhibitors of Cell Surface uPA Generation; note: nearly all actives have a fitted effect of over 55% in size
# Conditions: cell surface uPA generation assay; series mostly up to 38.3 µM; activity change, negative = inhibition: at the top concentration
# Method in brief: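 Intracellular ATP by ATPlite luminescence serves as read-out: inhibited cell-surface uPA generation prevents LF translocation, preserving ATP. Murine RAW 264.7 macrophages were treated 24 h at 37 C with five-fold serial dilutions, up to 38.3 uM final.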
# % is set by controls: 0 for no effect and ±100 for the full control effect; potency is the fitted concentration of half-maximal effect.
SMILES,Potency,"activity change, negative = inhibition"
CCOc1ccc(/C=C\C(C)=N\O)cc1,"inconclusive: 7.94 µM [inhibitor, partial curve, poor fit]",
Cc1ccc(C)n1-c1nnc(N2CCC(C(=O)N3CCN(C)CC3)CC2)s1,"inconclusive: 11.2 µM [inhibitor, single point]",
O=c1[nH][nH]cc1C=Nc1ccccc1O,,inactive: -6.91%
COC(=O)C1=C(C)N(Cc2ccccc2)C(=NCCCOC(C)C)N[C@H]1c1ccccc1,"inconclusive: 12.6 µM [inhibitor, single point]",
CC(C)N1CCc2c(sc(NC(=O)c3cc(-c4cccs4)nc4ccccc34)c2C(N)=O)C1,"inconclusive: 7.94 µM [inhibitor, partial curve, poor fit]",
CCOC(=O)CSC1=C(C#N)C(c2ccccc2OC)CC(=O)N1 (configuration not stated),"inconclusive: 11.2 µM [inhibitor, partial curve, poor fit]",
Cc1cc(C)c2sc(NNC(=O)c3ccc(S(=O)(=O)N4CCc5ccccc5C4)cc3)nc2c1,"inconclusive: 1.26 µM [inhibitor, partial curve, poor fit]",
COc1ccc(-c2ccc(CCC(=O)O)n2-c2ccccc2OC)cc1,active: 2.24 µM,
COc1ccc2cc(C3=CCCCC3)ncc2c1,"inconclusive: 12.6 µM [inhibitor, single point]",
Cc1noc(/C=C/N(C)C)c1S(=O)(=O)N1CCCC(C(=O)Nc2ccc3c(c2)OCO3)C1 (configuration not stated),"inconclusive: 7.94 µM [inhibitor, single point]",
CC(OC(=O)CNC(=O)c1ccc2ccccc2c1)C(=O)NC1CCCCC1C (configuration not stated),,inactive: -0.254%
COC(=O)CCCC1=CC2=C(c3ccccc3)C(=O)C(C)(OC(=O)C3CCCC3)C(=O)C2=CN1C1CCCC1 (configuration not stated),"inconclusive: 3.16 µM [inhibitor, partial curve]",
CN(C)S(=O)(=O)c1cccc(C(=O)OCC(=O)Nc2sccc2C#N)c1,,inactive: -4.18%
CN(C)N=C1c2cc(S(=O)(=O)N(C)C)ccc2-c2ccc(S(=O)(=O)N(C)C)cc21,"inconclusive: 11.2 µM [inhibitor, single point]",
COc1cccc(CNC(=O)Cn2ccc3cc(S(=O)(=O)N4CCCCCC4)ccc32)c1,"inconclusive: 0.708 µM [inhibitor, partial curve]",
CN1CCN(C(=O)CCN2C(=O)/C(=C\c3ccccc3F)SC2=S)CC1,"inconclusive: 10 µM [inhibitor, partial curve, poor fit]",
CC[C@@]1(C(=O)OC)N[C@H](CN(C)C(=O)Nc2ccccc2)[C@@H]2C(=O)N(C)C(=O)[C@@H]21,,inactive: -26.8%
Nc1c(C(=O)NCCN2CCOCC2)c2nc3ccccc3nc2n1CCc1ccccc1,,inactive: 8.85%
COc1ccc(CN2CCN(C(=O)c3ccc(S(=O)(=O)NCc4ccco4)cc3)CC2)cc1,"inconclusive: 4.47 µM [inhibitor, partial curve, poor fit]",
CNc1ccccc(-c2ccc3cc4c(cc3n2)OCO4)c1=O,,inactive: 3.07%
Cn1c2ccccc2c2nnc(SCC(=O)NC3CCCC3)nc21,,inactive: -0.106%

SMILES,Potency,"activity change, negative = inhibition"
CC(/C=N/NC(=O)c1ccccn1)=C\c1ccco1,"inconclusive: 3.16 µM [inhibitor, partial curve]",
Cc1ccc(-c2ccc(/C=N/O)o2)cc1[N+](=O)[O-],"inconclusive: 10 µM [inhibitor, single point]",
N#Cc1c(-c2ccccc2)c(-c2ccccc2)nn(CC(=O)NNC(=O)Nc2ccccc2)c1=O,"inconclusive: 7.08 µM [inhibitor, partial curve, poor fit]",
CCOc1ccc(CN(C)C(=O)c2ccc3ccccc3n2)cc1,,inactive: 0.677%
CCC(=Nc1ccccc1O)C1=C(O)CC(c2ccccc2)CC1=O (configuration not stated),"inconclusive: 4.47 µM [inhibitor, partial curve, poor fit]",
O=C(CCCN1C(=O)[C@H]2CC=CC[C@H]2C1=O)NCc1nc(-c2ccccc2)no1,,inactive: 4.23%
COc1ccc2nc(NC(=O)C3CSC4(C)CCC(=O)N34)sc2c1 (configuration not stated),"inconclusive: 10 µM [inhibitor, partial curve]",
COc1cc(/C=N/NC(=O)c2nnn(-c3nonc3N)c2C(C)C)ccc1OCc1ccccc1,"inconclusive: 8.91 µM [inhibitor, partial curve]",
O=C(Oc1ccc(OC(=O)C2CCC2)cc1)C1CCC1,,inactive: -24%
CCOc1ccc(CNC2CCCc3ccccc32)cc1 (configuration not stated),"inconclusive: 28.2 µM [inhibitor, single point]",
C[C@]12c3[nH]c4cc(-c5ccco5)ccc4c3CCN1C(=O)[C@@H](CC(=O)NCCC1=CCCCC1)C[C@@H]2C(=O)N1CCOCC1,"inconclusive: 28.2 µM [inhibitor, single point]",
Cc1ccccc1Nc1c(-c2ccc(N3CCOCC3)cc2)nc2ncccn12,"inconclusive: 11.2 µM [inhibitor, partial curve, poor fit]",
NS(=O)(=O)c1cc2c(cc1Cl)NC(Cc1ccccc1)NS2(=O)=O (configuration not stated),,inactive: 9.87%
CC(C)(C)c1ccccc1OCC(=O)Nc1ncn[nH]1,,inactive: 4.02%
COc1cc(NC(=O)c2cc([N+](=O)[O-])ccc2Br)ccc1NC(=O)c1ccco1,"inconclusive: 7.08 µM [inhibitor, partial curve, poor fit]",
CCOC(=O)N1CCN(c2c(NCc3cccs3)c(=O)c2=O)CC1,"inconclusive: 12.6 µM [inhibitor, single point]",
Fc1ccc(CNC2CCN(Cc3ccccc3)CC2)cc1,"inconclusive: 0.316 µM [inhibitor, full curve, poor fit]",
COc1cccc(-c2ccc(NC(=O)C3CCCN(Cc4cnc(N(C)C)s4)C3)cc2)c1 (configuration not stated),"inconclusive: 11.2 µM [inhibitor, single point]",
COc1ccccc1/C=N/NC(=O)c1cc2c(OC)c(OC)ccc2[nH]1,"inconclusive: 1.78 µM [inhibitor, partial curve, poor fit]",
COc1ccc(OCC(=O)Nc2ccc3c(c2)nc(CCN2CCN(C)CC2)n3C)cc1,,inactive: -4.14%
O=C1[C@@H](Oc2ccccc2)[C@@H](c2ccncc2)N1c1ccccc1,"inconclusive: 2.51 µM [inhibitor, full curve]",

# Entries of single compounds, looked up by structure.
# `COc1ccc2nc(NC(=O)C3CSC4(C)CCC(=O)N34)sc2c1` (configuration not stated) as listed: Potency: inconclusive: 10 µM [inhibitor, partial curve]
# `COc1ccc(OCC(=O)Nc2ccc3c(c2)nc(CCN2CCN(C)CC2)n3C)cc1` as listed: activity change, negative = inhibition: inactive: -4.14%
